Results taken from the supplement of paper PMC10689618.
Structures can show the parent of a compound that is named as a salt. This is one part of the list. Single values are uncertain, as repeats are few or missing.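 Primary human fetal astrocytes engulfed labelled rat cortical synaptosomes, measured as a red/green ratio corrected for calcein live-cell signal and scaled to the plate median. Toxicity meant calcein falling over 30%; decreased phagocytosis meant below 70% of median above 5 µM.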

Tests used:
Human fetal astrocytes [1] = test: loss of total cells relative to no-compound high-control median (toxicity); higher = more toxic (fewer cells); conditions: 24 h
Human fetal astrocytes [2] = test: synaptosome phagocytosis (pHrodo/calcein intensity ratio) relative to plate median of data wells; higher = more phagocytosis; conditions: 24 h

Row | SMILES | loss of total cells (Human fetal astrocytes [1]; 1.39 µM) [%] | loss of total cells (Human fetal astrocytes [1]; 2.78 µM) [%] | loss of total cells (Human fetal astrocytes [1]; 5.56 µM) [%] | loss of total cells (Human fetal astrocytes [1]; 11.11 µM) [%] | loss of total cells (Human fetal astrocytes [1]; 22.22 µM) [%] | synaptosome phagocytosis (Human fetal astrocytes [2]; 1.39 µM) [%] | synaptosome phagocytosis (Human fetal astrocytes [2]; 2.78 µM) [%] | synaptosome phagocytosis (Human fetal astrocytes [2]; 5.56 µM) [%] | synaptosome phagocytosis (Human fetal astrocytes [2]; 11.11 µM) [%] | synaptosome phagocytosis (Human fetal astrocytes [2]; 22.22 µM) [%]
1 | NC(=O)c1cc[n+](CC2=C(C(=O)O)N3C(=O)[C@@H](NC(=O)C(c4ccccc4)S(=O)(=O)[O-])[C@H]3SC2)cc1 (stereo not given in full) [Cefsulodin sodium salt hydrate] | -19.4 | -15.6 | -0.5 | -11.2 | 16.2 | 109 | 108 | 118 | 84.8 | 93.6
2 | NCCS(=O)O [Hypotaurine] | -6.3 | -19.7 | -9.9 | -4.9 | 0.8 | 93.9 | 95.4 | 117 | 130 | 145
3 | CN1CCN(C2Cc3ccccc3Sc3ccc(Cl)cc32)CC1 (racemic) [(±)-Octoclothepin maleate] | -28.9 | 4.1 | 1.4 | -3.8 | 24.3 | 97.2 | 108 | 92.2 | 79.7 | 52.9
4 | CC(C)NC[C@H](O)COc1ccc(CC(N)=O)cc1 [S(-)-Atenolol] | -7.7 | -6.6 | -22.6 | -7.6 | 4.9 | 101 | 115 | 88 | 104 | 71.1
5 | C[N+]1(CCCCC[N+]2(C)CCCC2)CCCC1 [Pentolinium di[L(+)-tartrate]] | -22.3 | -19.5 | -2.3 | -6.7 | -4.7 | 88.4 | 84.2 | 93.8 | 104 | 109
6 | Cc1nc(N=Nc2cc(S(=O)(=O)O)c3cc([N+](=O)[O-])cc(S(=O)(=O)O)c3c2)c(COP(=O)(O)O)c(C=O)c1O [PPNDS tetrasodium] | -13.7 | -2.3 | 7 | 4.8 | 15 | 84.2 | 98.4 | 67.1 | 112 | 96.5
7 | N#C/C(=C\c1ccc(O)c(O)c1)C(=O)NCCCc1ccccc1 [Tyrphostin AG 555] | -11.5 | -31.4 | -4.5 | 3.4 | -9.1 | 104 | 95.3 | 89.9 | 130 | 62
8 | CC(=O)[C@H]1CC[C@H]2[C@@H]3CCC4=CC(=O)CC[C@]4(C)[C@H]3CC[C@]12C [Progesterone] | -13.7 | 10.4 | 14.6 | 21 | 8.4 | 122 | 95.7 | 112 | 115 | 105
9 | CC(=O)NC(C(=O)O)C(C)(C)SN=O (stereo not given) [S-Nitroso-N-acetylpenicillamine] | -15.6 | 7.7 | -14.6 | -3.8 | 11.2 | 131 | 102 | 117 | 104 | 129
10 | CC(C)(Oc1ccc(C2CC2(Cl)Cl)cc1)C(=O)O (stereo not given) [Ciprofibrate] | -20.6 | -9.3 | -22.6 | -13 | -13.9 | 89.3 | 98.2 | 90 | 115 | 111
11 | CCOC(=O)C1=C[C@]2(CC)CCCN3CCc4c(n1c1ccccc41)[C@@H]32 [Vinpocetine] | -14 | -30.2 | 0 | -30.3 | -38.7 | 101 | 96.8 | 126 | 99.6 | 100
12 | CC[N+](C)(C)Cc1ccccc1Br [Bretylium tosylate] | -4 | -11.4 | -0.5 | -19.3 | 4.1 | 133 | 106 | 104 | 95.2 | 87.1
13 | C[C@]12C=CC(=O)C=C1CC[C@H]1[C@@H]3C[C@@H](O)[C@](O)(C(=O)CO)[C@@]3(C)C[C@H](O)[C@@]12F [Triamcinolone] | -39.4 | -36.2 | -27.5 | -38.7 | -61.7 | 77.2 | 93 | 98 | 112 | 128
14 | C[C@]12CCC(=O)C=C1CC[C@@H]1[C@@H]2CC[C@@]2(C)[C@H]1CC[C@]2(O)C(=O)CO [Cortexolone] | -2.2 | -7.5 | -27 | -22.6 | -37 | 92.2 | 101 | 84.9 | 112 | 93.6
15 | CC(=O)N[C@@H](Cc1c[nH]c2ccccc12)C(=O)OCc1cc(C(F)(F)F)cc(C(F)(F)F)c1 | -24.6 | -13.2 | 4.1 | -19.3 | 1.9 | 71.3 | 114 | 118 | 89.6 | 88.6
16 | CC[C@H](C)C(=O)O[C@H]1CCC=C2C=C[C@H](C)[C@H](CC[C@@H]3C[C@@H](O)CC(=O)O3)[C@H]21 [Mevastatin] | -13.7 | 1.4 | 17.4 | 21.9 | 16.8 | 133 | 87.2 | 115 | 127 | 144
17 | CC[C@@H]1Cc2cc(O)ccc2C2=C1c1ccc(O)cc1C[C@H]2CC [(R,R)-cis-Diethyl tetrahydro-2,8-chrysenediol] | 13 | -15.4 | 10.7 | 14.8 | 24 | 98.9 | 124 | 121 | 101 | 68.8
18 | N#C/C(=C\c1ccc(O)c(O)c1)C(=O)c1ccc(O)c(O)c1 [Tyrphostin AG 538] | -0.3 | -8.1 | -2.8 | -0.4 | -12.3 | 125 | 122 | 111 | 80.3 | 109
19 | CCCNC(=O)NS(=O)(=O)c1ccc(Cl)cc1 [Chlorpropamide] | -23.1 | -7.2 | -5.1 | -5.8 | 8.6 | 52.8 | 93.5 | 92.5 | 109 | 86.1
20 | CC(C)C[C@H](NC(=O)[C@H]1O[C@@H]1C(=O)O)C(=O)NCCCCN=C(N)N | 14.6 | -5.1 | 0.8 | 2.2 | 4.8 | 96.6 | 65.5 | 90.1 | 138 | 87.5

Structures from the list above containing a cyano group:
Row | SMILES | loss of total cells (Human fetal astrocytes [1]; 1.39 µM) [%] | loss of total cells (Human fetal astrocytes [1]; 2.78 µM) [%] | loss of total cells (Human fetal astrocytes [1]; 5.56 µM) [%] | loss of total cells (Human fetal astrocytes [1]; 11.11 µM) [%] | loss of total cells (Human fetal astrocytes [1]; 22.22 µM) [%] | synaptosome phagocytosis (Human fetal astrocytes [2]; 1.39 µM) [%] | synaptosome phagocytosis (Human fetal astrocytes [2]; 2.78 µM) [%] | synaptosome phagocytosis (Human fetal astrocytes [2]; 5.56 µM) [%] | synaptosome phagocytosis (Human fetal astrocytes [2]; 11.11 µM) [%] | synaptosome phagocytosis (Human fetal astrocytes [2]; 22.22 µM) [%]
7 | N#C/C(=C\c1ccc(O)c(O)c1)C(=O)NCCCc1ccccc1 [Tyrphostin AG 555] | -11.5 | -31.4 | -4.5 | 3.4 | -9.1 | 104 | 95.3 | 89.9 | 130 | 62
18 | N#C/C(=C\c1ccc(O)c(O)c1)C(=O)c1ccc(O)c(O)c1 [Tyrphostin AG 538] | -0.3 | -8.1 | -2.8 | -0.4 | -12.3 | 125 | 122 | 111 | 80.3 | 109

Next part

Row | SMILES | loss of total cells (Human fetal astrocytes [1]; 1.39 µM) [%] | loss of total cells (Human fetal astrocytes [1]; 2.78 µM) [%] | loss of total cells (Human fetal astrocytes [1]; 5.56 µM) [%] | loss of total cells (Human fetal astrocytes [1]; 11.11 µM) [%] | loss of total cells (Human fetal astrocytes [1]; 22.22 µM) [%] | synaptosome phagocytosis (Human fetal astrocytes [2]; 1.39 µM) [%] | synaptosome phagocytosis (Human fetal astrocytes [2]; 2.78 µM) [%] | synaptosome phagocytosis (Human fetal astrocytes [2]; 5.56 µM) [%] | synaptosome phagocytosis (Human fetal astrocytes [2]; 11.11 µM) [%] | synaptosome phagocytosis (Human fetal astrocytes [2]; 22.22 µM) [%]
21 | COc1ccc2c(c1)c(CC(=O)O)c(C)n2Cc1ccc(F)cc1 [1-(4-Fluorobenzyl)-5-methoxy-2-methylindole-3-acetic acid] | -11.3 | -19.7 | -12.3 | -13 | 5.6 | 110 | 76.5 | 113 | 124 | 116
22 | COc1cc2c(cc1O)CC[C@@H]1[C@@H]2CC[C@]2(C)[C@@H](O)CC[C@@H]12 [2-methoxyestradiol] | -1.4 | 12.2 | -10.8 | 0 | -0.9 | 90.3 | 93.3 | 89.5 | 88.2 | 90.3
23 | COCc1nc2c([nH]1)c(=O)n(C)c(=O)n2CC(C)C [8-Methoxymethyl-3-isobutyl-1-methylxanthine] | -19.4 | 17.6 | -6.1 | 19 | 2.8 | 122 | 128 | 128 | 126 | 99.5
24 | N=C(N)SCCc1ccc(CCSC(=N)N)cc1 [1,4-PBIT dihydrobromide] | -24.5 | -15.9 | -6.7 | -5 | -9.9 | 96.1 | 112 | 115 | 108 | 97.2
25 | NS(=O)(=O)c1cc2c(cc1Cl)N=CNS2(=O)=O [Chlorothiazide] | -11.7 | -5.7 | -0.5 | -19.3 | -5.6 | 112 | 124 | 94.2 | 98.6 | 109
26 | c1ccc(C2CN3CCSC3=N2)cc1 (single isomer, unassigned; (-)) [(-)-Tetramisole hydrochloride] | -20.4 | 5 | -2.3 | 0 | 15.9 | 103 | 120 | 106 | 87 | 124
27 | CC1(C)CCC2=C(O1)c1ccccc1C(=O)C2=O [beta-Lapachone] | -15.6 | 4.1 | 4.2 | 13.3 | 24.3 | 80.4 | 94.1 | 83.2 | 56.5 | 65.5
28 | COc1cccc(OC)c1OCCNCC1CSc2ccccc2O1 (stereo not given) [Benoxathian hydrochloride] | -8.1 | -8.1 | -10.6 | -11.2 | 4.9 | 96.3 | 114 | 86.6 | 76.9 | 83.6
29 | O=S(=O)(O)C1CCNCC1 [Piperidine-4-sulphonic acid] | -17.7 | -15.3 | -18.5 | -15.7 | -0.8 | 106 | 97.3 | 109 | 113 | 91.6
30 | Nc1ccn([C@H]2CC[C@@H](CO)O2)c(=O)n1 [2',3'-dideoxycytidine] | -7.9 | -10.3 | 7.4 | 3.1 | 8 | 112 | 124 | 105 | 75.2 | 77.6
31 | COc1cc(C(=O)OCCCN2CCCN(CCCOC(=O)c3cc(OC)c(OC)c(OC)c3)CC2)cc(OC)c1OC [Dilazep hydrochloride] | 9.6 | -14.5 | 4.1 | -2.2 | 10.4 | 103 | 98.3 | 108 | 99.9 | 109
32 | O=C(CCNNC(=O)c1ccncc1)NCc1ccccc1 [Nialamide] | -23.2 | 18.6 | -5.2 | -1 | 7.5 | 133 | 114 | 92 | 108 | 92.3
33 | CCCC1O[C@@H]2C[C@H]3[C@@H]4CCC5=CC(=O)C=C[C@]5(C)[C@H]4[C@@H](O)C[C@]3(C)[C@]2(C(=O)CO)O1 (stereo not given in full) [Budesonide] | -17.2 | -7.2 | -15.2 | -11.2 | -8.6 | 86.9 | 101 | 105 | 121 | 91.4
34 | C=C[C@H]1CN2CC[C@H]1C[C@H]2[C@H](O)c1ccnc2ccc(OC)cc12 [Quinine sulfate] | -12.1 | -41 | -10.7 | -22.6 | -31.3 | 92.3 | 89.8 | 93.2 | 79.6 | 119
35 | Cn1c(=O)c2[nH]cnc2n(C)c1=O [Aminophylline ethylenediamine] | -5.5 | -2.4 | -19.8 | 12.1 | 6.4 | 108 | 78.2 | 109 | 116 | 92.2
36 | NC1CONC1=O (racemic) [DL-Cycloserine] | -25.7 | -22.3 | -22.6 | -10.3 | 1.9 | 87.6 | 72.5 | 110 | 108 | 101
37 | CCC(=O)N1CCN(C(=O)c2ccccc2)CC1 | -27.2 | -28.2 | -30.5 | -6.7 | 0 | 124 | 96.8 | 106 | 83.3 | 90.5
38 | CC1(C)CCC=[N+]1[O-] [5,5-Dimethyl-1-pyrroline-N-oxide] | 2.1 | -5.1 | 20.6 | -15.7 | -3.2 | 82.6 | 111 | 107 | 97.9 | 83.6
39 | Nc1nc(SCc2ccc([N+](=O)[O-])cc2)c2ncn([C@@H]3O[C@H](CO)[C@H](O)C3O)c2n1 (stereo partly drawn) [S-(4-Nitrobenzyl)-6-thioguanosine] | -1.5 | -4.2 | 3.2 | -7.6 | 9.4 | 120 | 108 | 91.5 | 100 | 121
